Test results from publication PMC8312610, “F4, a collagen XIX-derived peptide, inhibits tumor angiogenesis through αvβ3 and α5β1 integrin interaction” (Cell Adhesion & Migration, 2021).

Biological target: T1, F4 peptide (…) from collagen XIX
T1 sequence (peptide): CNPEDCLYPVSHAHQR
Test: pull-down; affinity chromatography: F4 peptide (reduced with 50 mM DTT) coupled to HiTrap NHS-activated Sepharose; HUVEC protein extracts loaded at +4°C; wash 10 mM Tris, 1 mM CaCl2, 1 mM MgCl2, pH 7.6, 0.1% octylglucoside; elution with 0.15, 0.6 and 1 M NaCl; western blot with anti-integrin subunit antibodies; only the target purified

Substance	binding
α5β1 integrin of HUVEC (human (endogenous in HUVEC)) (receptor)	binds
αvβ3 integrin of HUVEC (human (endogenous in HUVEC)) (receptor)	binds

Results are given in words; binding and its absence hold for the method and conditions named. Binding seen in cells or lysates may run through a third protein. Binding calls can cover weak binding; strength is not graded here.
